This assay addresses rat MCH-1 (Rattus norvegicus, UniProt P97639). The assay is described as follows: Radioligand binding assay at cloned rat MCH1 receptor ([3H] Compound A). On the set-up: host or cells: Peak rapid 293 (Peakr293) cells, transient calcium phosphate transfection, membranes. The settings on record: 0.08 nM [3H] Compound A, Peakr293 cell membranes, read-out: Ki (nM) rMCH1.

Sequences of proteins named here, by UniProt entry; tags and fusion partners are left off. A change or cut given only in a name is not applied to a line headed by its entry.
UniProt P97639: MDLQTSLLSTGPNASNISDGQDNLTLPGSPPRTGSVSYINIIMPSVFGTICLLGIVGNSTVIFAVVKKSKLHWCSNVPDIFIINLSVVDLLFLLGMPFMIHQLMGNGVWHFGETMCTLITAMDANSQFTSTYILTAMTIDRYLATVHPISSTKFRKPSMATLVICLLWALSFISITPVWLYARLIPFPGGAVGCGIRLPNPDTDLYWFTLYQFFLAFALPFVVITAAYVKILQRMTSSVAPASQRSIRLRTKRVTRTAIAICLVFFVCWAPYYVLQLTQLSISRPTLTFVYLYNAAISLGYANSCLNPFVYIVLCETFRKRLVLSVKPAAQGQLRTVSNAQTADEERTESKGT

Usually Ki stands for a dissociation constant, usually derived from enzyme kinetics or from competition with a known ligand.

Regarding `CC(C)C(=O)Nc1cccc(C2CCN(CCCCC(=O)c3cccc([N+](=O)[O-])c3)CC2)c1` [Example 665], the Ki was 38.4 nM.

For the origin of these results see patent US6727264B1 (Synaptic Pharmaceutical Corporation, priority 2001, dated 2004).
